This note sets out measurements from US20060120980A1, “Novel dermatological composition using bio-activating organocatalysts” (priority 2004, published 2006).

Like-named read-outs stand apart in the source and are kept apart here.

The nature of this series: reduction of Cu++ to Cu+ by redox agent.

In the case of `O=C(O)CCCC[C@@H]1CCSS1` (racemic) [Lipoic Acid], the “Reduction Cu^++” value is on record as “yes”.
Same read-out and setting: the result for `O=C(O)/C=C/c1ccc(O)c(O)c1` [Caffeic acid] reads “yes”; that for `N[C@@H](CS)C(=O)O` [Cysteine], “yes”; that for `O=C(O)c1cc(O)c(O)c(O)c1` [Gallic acid], “yes”.
Still for that read-out and setting: in the case of `N[C@@H](CCC(=O)N[C@@H](CS)C(=O)NCC(=O)O)C(=O)O` [Glutathione] it was “yes”.
The same measure, in the same setting: the result for `CC(=O)N[C@@H](CS)C(=O)O` [N-acetyl cysteine] reads “yes”; that for `CCCOC(=O)c1cc(O)c(O)c(O)c1` [Propyl gallate], “yes”.
Turning to `O=c1c(O)c(-c2ccc(O)c(O)c2)oc2cc(O)cc(O)c12` [Quercetin], the “Reduction Cu^++” value is recorded as “no”. Moreover, the “Reduction Cu^++” value (listed as quercetin) is listed as “did not reduce Cu^2+”.
Consider `Cc1ccc(C(C)C)c(O)c1` [Thymol], for which the “Reduction Cu^++” value is “no”. In addition, where the note is “listed as thymol”, the “Reduction Cu^++” value is given as “did not reduce Cu^2+”.
Consider `O=c1[nH]c(=O)c2[nH]c(=O)[nH]c2[nH]1` [Uric acid], for which the “Reduction Cu^++” value is given as “yes”.
